The list shows a part of the results. Single values are uncertain, as repeats are few or missing.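 Imaging used 1,536-well plates; nuclei positive for cleaved PARP by antibody were divided by total DNA-stained nuclei to yield the apoptosis fraction. Doses for screening kept most cells viable, and cell lines differ markedly in resting and induced cleaved-PARP levels.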
tested on: CBRC017 (line from a melanoma biopsy); assay: cleaved PARP positive nuclei fraction relative to DMSO control; melanoma cells; higher = more apoptosis; details: library dose: low library concentration; 72 h

SMILES | cleaved PARP positive nuclei fraction [%]
C=C(c1ccc(C(=O)O)cc1)c1cc2c(cc1C)C(C)(C)CCC2(C)C [Bexarotene] + Cc1cc([N+](=O)[O-])ccc1NS(=O)(=O)c1cc(Cl)ccc1Cl [FH535] (first compound 2 µM, partner dose 1 µM) | 180
C=C(c1ccc(C(=O)O)cc1)c1cc2c(cc1C)C(C)(C)CCC2(C)C [Bexarotene] + COc1ccc(COc2ccc(Cc3cnc(N)nc3N)cc2OC)cc1 [GW2580] (first compound 2 µM, partner dose 1 µM) | 138
Nc1nc(F)nc2c1ncn2[C@@H]1O[C@H](CO)[C@@H](O)[C@@H]1O [fludarabine] + O=C(Nc1ccccc1)c1cc([N+](=O)[O-])ccc1Cl [GW9662] (first compound 0.2 µM, partner dose 2 µM) | 113
CC(C)C[C@H](NC(=O)[C@H](Cc1ccccc1)NC(=O)c1cnccn1)B(O)O [Bortezomib] + COC(=O)c1sccc1S(=O)(=O)Nc1ccc(Nc2ccccc2)cc1OC [GSK0660] (first compound 0.001 µM, partner dose 1 µM) | 232
CN1CCN(c2ccc3nc(-c4c(N)c5c(F)cccc5[nH]c4=O)[nH]c3c2)CC1 [Dovitinib] + COc1ccc(COc2ccc(Cc3cnc(N)nc3N)cc2OC)cc1 [GW2580] (first compound 0.1 µM, partner dose 1 µM) | 92.2
Cn1c(=O)n(-c2ccc(C(C)(C)C#N)cc2)c2c3cc(-c4cnc5ccccc5c4)ccc3ncc21 + Cc1cc([N+](=O)[O-])ccc1NS(=O)(=O)c1cc(Cl)ccc1Cl [FH535] (first compound 0.004 µM, partner dose 1 µM) | 276
CCCS(=O)(=O)Nc1ccc(F)c(C(=O)c2c[nH]c3ncc(Cl)cc23)c1F + Oc1nc(-c2ccc(C(F)(F)F)cc2)nc2c1CSCC2 [XAV939] (first compound 0.08 µM, partner dose 2 µM) | 75
Nc1nc(F)nc2c1ncn2[C@@H]1O[C@H](CO)[C@@H](O)[C@@H]1O [fludarabine] + COc1ccc(-c2ccc3c(N4CCOCC4)nc(N4C[C@@H](C)O[C@@H](C)C4)nc3n2)cc1CO [KU0063794] (first compound 0.2 µM, partner dose 0.02 µM) | 182
CS(=O)(=O)CCNCc1ccc(-c2ccc3ncnc(Nc4ccc(OCc5cccc(F)c5)c(Cl)c4)c3c2)o1 [lapatinib] + O=C(Nc1ccccc1)c1cc([N+](=O)[O-])ccc1Cl [GW9662] (first compound 0.8 µM, partner dose 2 µM) | 91.1
C=C(c1ccc(C(=O)O)cc1)c1cc2c(cc1C)C(C)(C)CCC2(C)C [Bexarotene] + CCc1ccc(CCOc2ccc(CC3SC(=O)NC3=O)cc2)nc1 [pioglitazone] (first compound 2 µM, partner dose 2 µM) | 110
C=C(c1ccc(C(=O)O)cc1)c1cc2c(cc1C)C(C)(C)CCC2(C)C [Bexarotene] + c1cc(-c2cnn3cc(-c4ccc(OCCN5CCCCC5)cc4)cnc23)ccn1 [Dorsomorphin] (first compound 2 µM, partner dose 0.4 µM) | 119
CS(=O)(=O)CCNCc1ccc(-c2ccc3ncnc(Nc4ccc(OCc5cccc(F)c5)c(Cl)c4)c3c2)o1 [lapatinib] + COc1cc(N2CCC(N3CCN(C)CC3)CC2)ccc1Nc1ncc(Cl)c(Nc2ccccc2S(=O)(=O)C(C)C)n1 [NVP-TAE684] (first compound 0.8 µM, partner dose 0.08 µM) | 198
CNC(=O)c1cc(Oc2ccc(NC(=O)Nc3ccc(Cl)c(C(F)(F)F)c3)cc2)ccn1 [sorafenib] + CCN(CC)CCCCNc1ncc2cc(-c3cc(OC)cc(OC)c3)c(NC(=O)NC(C)(C)C)nc2n1 [PD173074] (first compound 0.4 µM, partner dose 0.1 µM) | 109
CO[C@H]1C[C@@H]2CC[C@@H](C)[C@@](O)(O2)C(=O)C(=O)N2CCCC[C@H]2C(=O)O[C@H]([C@H](C)C[C@@H]2CC[C@@H](OCCO)[C@H](OC)C2)CC(=O)[C@H](C)/C=C(\C)[C@@H](O)[C@@H](OC)C(=O)[C@H](C)C[C@H](C)/C=C/C=C/C=C/1C [everolimus] + O=C1NC(=O)/C(=C/c2ccc(-c3ccc(F)cc3O)o2)S1 [AS252424] (first compound 0.02 µM, partner dose 1 µM) | 112

Taken from above (seven entries):
SMILES | cleaved PARP positive nuclei fraction [%]
CCCS(=O)(=O)Nc1ccc(F)c(C(=O)c2c[nH]c3ncc(Cl)cc23)c1F + Oc1nc(-c2ccc(C(F)(F)F)cc2)nc2c1CSCC2 [XAV939] (first compound 0.08 µM, partner dose 2 µM) | 75
Nc1nc(F)nc2c1ncn2[C@@H]1O[C@H](CO)[C@@H](O)[C@@H]1O [fludarabine] + COc1ccc(-c2ccc3c(N4CCOCC4)nc(N4C[C@@H](C)O[C@@H](C)C4)nc3n2)cc1CO [KU0063794] (first compound 0.2 µM, partner dose 0.02 µM) | 182
CS(=O)(=O)CCNCc1ccc(-c2ccc3ncnc(Nc4ccc(OCc5cccc(F)c5)c(Cl)c4)c3c2)o1 [lapatinib] + O=C(Nc1ccccc1)c1cc([N+](=O)[O-])ccc1Cl [GW9662] (first compound 0.8 µM, partner dose 2 µM) | 91.1
C=C(c1ccc(C(=O)O)cc1)c1cc2c(cc1C)C(C)(C)CCC2(C)C [Bexarotene] + CCc1ccc(CCOc2ccc(CC3SC(=O)NC3=O)cc2)nc1 [pioglitazone] (first compound 2 µM, partner dose 2 µM) | 110
C=C(c1ccc(C(=O)O)cc1)c1cc2c(cc1C)C(C)(C)CCC2(C)C [Bexarotene] + c1cc(-c2cnn3cc(-c4ccc(OCCN5CCCCC5)cc4)cnc23)ccn1 [Dorsomorphin] (first compound 2 µM, partner dose 0.4 µM) | 119
CS(=O)(=O)CCNCc1ccc(-c2ccc3ncnc(Nc4ccc(OCc5cccc(F)c5)c(Cl)c4)c3c2)o1 [lapatinib] + COc1cc(N2CCC(N3CCN(C)CC3)CC2)ccc1Nc1ncc(Cl)c(Nc2ccccc2S(=O)(=O)C(C)C)n1 [NVP-TAE684] (first compound 0.8 µM, partner dose 0.08 µM) | 198
CNC(=O)c1cc(Oc2ccc(NC(=O)Nc3ccc(Cl)c(C(F)(F)F)c3)cc2)ccn1 [sorafenib] + CCN(CC)CCCCNc1ncc2cc(-c3cc(OC)cc(OC)c3)c(NC(=O)NC(C)(C)C)nc2n1 [PD173074] (first compound 0.4 µM, partner dose 0.1 µM) | 109

tested on: COLO792; assay: as above; details: library dose: low library concentration; 72 h

SMILES | cleaved PARP positive nuclei fraction [%]
Nc1ccn([C@@H]2O[C@H](CO)[C@@H](O)C2(F)F)c(=O)n1 [gemcitabine] + O=S(=O)(c1ccccc1)N(CC(F)(F)F)c1ccc(C(O)(C(F)(F)F)C(F)(F)F)cc1 [T0901317] (first compound 0.0004 µM, partner dose 1.4 µM) | 41.8
Nc1ncn([C@H]2C[C@H](O)[C@@H](CO)O2)c(=O)n1 [decitabine] + O=C(Nc1ccccc1)c1cc([N+](=O)[O-])ccc1Cl [GW9662] (first compound 0.1 µM, partner dose 2 µM) | 146
Nc1nc(F)nc2c1ncn2[C@@H]1O[C@H](CO)[C@@H](O)[C@@H]1O [fludarabine] + Cn1cc(/C=C2\C(=O)Nc3cccnc32)c2ccccc21 [GW441756] (first compound 0.2 µM, partner dose 0.4 µM) | 145
Nc1ccn([C@@H]2O[C@H](CO)[C@@H](O)C2(F)F)c(=O)n1 [gemcitabine] + CCN(CC)CCCCNc1ncc2cc(-c3cc(OC)cc(OC)c3)c(NC(=O)NC(C)(C)C)nc2n1 [PD173074] (first compound 0.0004 µM, partner dose 0.1 µM) | 99.7
CCCS(=O)(=O)Nc1ccc(F)c(C(=O)c2c[nH]c3ncc(Cl)cc23)c1F + COc1ccc(COc2ccc(Cc3cnc(N)nc3N)cc2OC)cc1 [GW2580] (first compound 0.08 µM, partner dose 1 µM) | 80
Nc1ccn([C@@H]2O[C@H](CO)[C@@H](O)C2(F)F)c(=O)n1 [gemcitabine] + CCc1ccc(CCOc2ccc(CC3SC(=O)NC3=O)cc2)nc1 [pioglitazone] (first compound 0.0004 µM, partner dose 2 µM) | 112
Nc1ncn([C@H]2C[C@H](O)[C@@H](CO)O2)c(=O)n1 [decitabine] + Oc1cc(-c2nc(-c3ccccc3)[nH]c2-c2ccncc2)ccc1Cl [L779450] (first compound 0.1 µM, partner dose 0.2 µM) | 176
CNC(=O)c1cc(Oc2ccc(NC(=O)Nc3ccc(Cl)c(C(F)(F)F)c3)cc2)ccn1 [sorafenib] + Cc1cc([N+](=O)[O-])ccc1NS(=O)(=O)c1cc(Cl)ccc1Cl [FH535] (first compound 0.4 µM, partner dose 1 µM) | 93
O=C(O)c1ccc2c(c1)nc(Nc1cccc(Cl)c1)c1ccncc12 + N#Cc1c(O)c2c(-c3ccc(-c4ccccc4O)cc3)csc2[nH]c1=O [A769662] (first compound 0.4 µM, partner dose 2 µM) | 133
Nc1ccn([C@@H]2O[C@H](CO)[C@@H](O)C2(F)F)c(=O)n1 [gemcitabine] + COc1ccc(COc2ccc(Cc3cnc(N)nc3N)cc2OC)cc1 [GW2580] (first compound 0.0004 µM, partner dose 1 µM) | 112
Nc1ncn([C@H]2C[C@H](O)[C@@H](CO)O2)c(=O)n1 [decitabine] + O=C1NC(=O)/C(=C/c2ccc(-c3ccc(F)cc3O)o2)S1 [AS252424] (first compound 0.1 µM, partner dose 1 µM) | 98.4
CCCS(=O)(=O)Nc1ccc(F)c(C(=O)c2c[nH]c3ncc(Cl)cc23)c1F + Cn1cc(/C=C2\C(=O)Nc3cccnc32)c2ccccc21 [GW441756] (first compound 0.08 µM, partner dose 0.4 µM) | 92.9
Cc1cc(Nc2cc(N3CCN(C)CC3)nc(/C=C/c3ccccc3)n2)n[nH]1 + O=c1cc(-c2cccc3c2Sc2ccccc2S3)oc(N2CCOCC2)c1 [KU55933] (first compound 0.04 µM, partner dose 1 µM) | 91.1
Cn1c(=O)n(-c2ccc(C(C)(C)C#N)cc2)c2c3cc(-c4cnc5ccccc5c4)ccc3ncc21 + COc1cc2ncnc(Nc3ccc(Oc4ccccc4)cc3)c2cc1OC [SrcI1] (first compound 0.004 µM, partner dose 2 µM) | 182
Cc1cc(Nc2cc(N3CCN(C)CC3)nc(/C=C/c3ccccc3)n2)n[nH]1 + O=S(=O)(c1ccccc1)N(CC(F)(F)F)c1ccc(C(O)(C(F)(F)F)C(F)(F)F)cc1 [T0901317] (first compound 0.04 µM, partner dose 1.4 µM) | 114
CCCS(=O)(=O)Nc1ccc(F)c(C(=O)c2c[nH]c3ncc(Cl)cc23)c1F + O=C1NC(=O)/C(=C/c2ccc(-c3ccc(F)cc3O)o2)S1 [AS252424] (first compound 0.08 µM, partner dose 1 µM) | 87.1
Cn1c(=O)n(-c2ccc(C(C)(C)C#N)cc2)c2c3cc(-c4cnc5ccccc5c4)ccc3ncc21 + CC(C)CCN1c2nc(Nc3cc(F)c(O)c(F)c3)ncc2N(C)C(=O)C1C [BID1870] (first compound 0.004 µM, partner dose 0.2 µM) | 231
CN1CCN(c2ccc3nc(-c4c(N)c5c(F)cccc5[nH]c4=O)[nH]c3c2)CC1 [Dovitinib] + Oc1cc(-c2nc(-c3ccccc3)[nH]c2-c2ccncc2)ccc1Cl [L779450] (first compound 0.1 µM, partner dose 0.2 µM) | 84.6

Source: the supplement of paper PMC4604168 (melanoma cell lines)
